# Measurements reported in PubChem BioAssay AID1224826 (NIAID, 2016)
# Screen: 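Knock-downs that raise or lower Tnf reporter signal after endotoxin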 (primary screen)
# Cells: RAW264.7 G9 macrophages from mouse bearing reporters for p65 (GFP) and the Tnf promoter (mCherry)
# Reagent: siRNA pool against mouse genes, 100 nM
# Duration: 16 h of LPS stimulation, after 2 days of siRNA transfection
# Conditions: bacterial lipopolysaccharide (Salmonella minnesota R595), 10 ng/ml
# Detection: 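Nuclear mCherry signal of the Tnf promoter reporter measured by imaging after background removal, scaled to each plate median and turned into robust z-scores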
# Reading the numbers: Tnf reporter robust z-score: higher = stronger Tnf promoter reporter signal after LPS
# Call rule: 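Called active when robust z-score is at most -1.3, matching the median of the Tlr4 knock-down control, or over 3; control wells and wells with under 50 cells never active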
# Calls: active = Tnf reporter clearly lowered or raised; inactive = no clear change in Tnf reporter
# In all, the deposit lists about 17,000 reagents; below is a part drawn at random. About 1,110 of them (6.6%) were called active. 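Active means lowered or raised reporter signal; replicate intensities are raw and not normalised per plate.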 A number with no mark means an inactive call. Not all columns of the deposit are shown.
target gene,Tnf reporter robust z-score,fewer than 50 cells in well
Semp2l2a (GeneID 231201),-1.35 (active),enough cells in well
Pecam1 (GeneID 18613),-0.49,enough cells in well
Imp3 (GeneID 102462),,fewer than 50 cells per well; well left out of calls
Atp9a (GeneID 11981),-0.99,enough cells in well
Lamp1 (GeneID 16783),0.64,enough cells in well
Tmco1 (GeneID 68944),-0.5,enough cells in well
Vegfc (GeneID 22341),1,enough cells in well
Bloc1s5 (GeneID 17828),-0.05,enough cells in well
Rhoa (GeneID 11848),1.86,enough cells in well
Necab1 (GeneID 69352),0.42,enough cells in well
Trim47 (GeneID 217333),5.39 (active),enough cells in well
Gnat1 (GeneID 14685),0.13,enough cells in well
Glrx2 (GeneID 69367),-0.5,enough cells in well
Pcca (GeneID 110821),0.87,enough cells in well
Rcbtb2 (GeneID 105670),0.23,enough cells in well
Tmem64 (GeneID 100201),-0.5,enough cells in well
Apbb1 (GeneID 11785),-0.37,enough cells in well
Ksr2 (GeneID 333050),1.52,enough cells in well
Cope (GeneID 59042),-0.03,enough cells in well
Capn8 (GeneID 170725),-0.49,enough cells in well
Ifi203 (GeneID 15950),0.88,enough cells in well
Snap91 (GeneID 20616),-1.22,enough cells in well
Fxyd7 (GeneID 57780),-0.11,enough cells in well
Tgif2lx1 (GeneID 245583),1.39,enough cells in well
Vmn1r228 (GeneID 171226),-1.39 (active),enough cells in well
Cdca8 (GeneID 52276),,fewer than 50 cells per well; well left out of calls
Emp2 (GeneID 13731),1.97,enough cells in well
Fanci (GeneID 208836),-0.13,enough cells in well
Fabp4 (GeneID 11770),1.14,enough cells in well
Hacl2 (GeneID 216136),-0.62,enough cells in well
Rufy1 (GeneID 216724),2.28,enough cells in well
Sec63 (GeneID 140740),2.73,enough cells in well
Tff2 (GeneID 21785),,fewer than 50 cells per well; well left out of calls
Degs2 (GeneID 70059),,fewer than 50 cells per well; well left out of calls
Prr15l (GeneID 217138),1.17,enough cells in well
Dusp23 (GeneID 68440),-1.51 (active),enough cells in well
Sec24b (GeneID 99683),0.34,enough cells in well
Khnyn (GeneID 219094),1.54,enough cells in well
Rpl13a (GeneID 22121),-1.25,enough cells in well
Znrf4 (GeneID 20834),,fewer than 50 cells per well; well left out of calls
Ano9 (GeneID 71345),-1.21,enough cells in well
Setd5 (GeneID 72895),,fewer than 50 cells per well; well left out of calls
Gstp2 (GeneID 14869),-0.43,enough cells in well
Zfp365 (GeneID 216049),0.13,enough cells in well
Srebf2 (GeneID 20788),0.14,enough cells in well
Cul5 (GeneID 75717),1.24,enough cells in well
Elf1 (GeneID 13709),-1.38 (active),enough cells in well
Zfp36l2 (GeneID 12193),-1.34 (active),enough cells in well
Tmc6 (GeneID 217353),-0.83,enough cells in well
Hivep3 (GeneID 16656),-1.24,enough cells in well
Fkbp1b (GeneID 14226),-0.08,enough cells in well
Adamts8 (GeneID 30806),2.18,enough cells in well
Cyyr1 (GeneID 224405),-0.36,enough cells in well
Ddx54 (GeneID 71990),-0.45,enough cells in well
Defb35 (GeneID 246084),-0.61,enough cells in well
Prl6a1 (GeneID 19111),2.12,enough cells in well
Nufip1 (GeneID 27275),-0.66,enough cells in well
Cnnm3 (GeneID 94218),0.04,enough cells in well
